This test has as its target N-terminal region of human huntingtin protein (amino acids 1-253) with 23 glutamines (HD-23Q) (human) (UniProt P42858). Description: colocalisation by double immunofluorescence in transfected PC12 cells.

Chains of the proteins cited; added tags and fusions are not shown. Residues count along the entry.
UniProt P42858, residues 1-253: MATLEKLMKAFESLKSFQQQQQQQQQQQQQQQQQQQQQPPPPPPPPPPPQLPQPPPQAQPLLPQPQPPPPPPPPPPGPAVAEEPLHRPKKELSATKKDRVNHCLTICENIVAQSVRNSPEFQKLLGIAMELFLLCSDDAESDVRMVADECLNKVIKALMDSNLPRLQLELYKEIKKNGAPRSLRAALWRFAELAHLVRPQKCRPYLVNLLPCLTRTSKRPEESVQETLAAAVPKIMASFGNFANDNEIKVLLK

No constants are given. Whether binding was seen depends on the method and setting. Some binding calls cover weakened binding; strength is not graded here.

B1: HAP1-A (Huntingtin Associated Protein 1-A) (protein, UniProt P54256-2 1-599, looked up)
chain: MRPKDQVQSSAGDGTGSGDPATGTPTTQPAADPAPEPSAEPKPAPAQGTGSGQKSGSRTKTGGSFCRSRIRGDSDAPWTRYIFQGPYGPRATGLGTGRAEGIWKTPAAYIGRRPGVSGPERAAFIRELQEALCPNPLPRKKITEDDIKVMLYLLEEKERDLNTAARIGQSLVKQNSVLMEENNKLETMLGSAREEILHLRKQVNLRDDLLQLYSDSDDDEEDEEDEEEEEGEEEEREGQRDQDQQHDHPYGAPKPPPKAETLHHCPQLEALKQKLKLLEEENDHLREEASHLDNLEDKEQMLILECVEQFSEASQQMAELSEVLVLRLEGYERQQKEITQLQAEITKLQQRCQSYGAQTEKLQQQLASEKGVHPESLRAGSHMQDYGSRPRERQEDGKSHRQRSSMPAGSVTHYGYSVPLDALPSFPETLAEELRTSLRKFITDPAYFMERCDTRCREERKKEQGTMPPPPVQDLKPPEDFEAPEELVPEEELGAIEEVGTAEDGPAEETEQASEETEAWEEVEPEVDEATRMNVVVSALEASGLGPSHLDMKYVLQQLSNWQDAHSKRQQKQKVVPKGECSRRGHPPASGTSYRSSTL
For B1, the binding entry is on record as “binds”.

The values above are taken from patent US6355481.
